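Viability assay of Plasmodium falciparum sporozoites; the read-out is not stated. The concentration is filed as 10 mM, unlikely as a test dose, so the dose is not known. The record gives no direction; compounds that gave an IC50 in retests scored well above the rest, so higher reads as lower viability. Strong results were mostly tested again. Size under these conditions: about 34,000 compounds, about 280 of them at 50% or above in at least one test.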

The filed quantity is “Percent Effect” (%).
How 0% and 100% were set is not recorded. Most values in the screen are low, and negative values occur.
The compounds are a random part of those screened.
Two or more numbers in one place are separate tests of the same structure; such repeats can differ widely.

compound | Percent Effect
c1cnc(N2CCCC(c3csc(Nc4cnccn4)n3)C2)nc1 (stereo not given) | -10.72
CN(C)CCOCc1cncc2c1CCN(C(=O)c1cscn1)C2 | -4.557
c1nc(N2CCCC(Cn3cncn3)C2)c2sccc2n1 (stereo not given) | 1.394
[H][C@@]12OCCN(C(=O)c3nn(C)c4ccccc34)[C@@]1([H])CC[C@@H]2OC | 4.679
CCc1ncc(CN2CCc3nc4sc(C)cc4c(=O)n3CC2)cn1 | 7.795
COCC(=O)N1CC(c2ccnc(Nc3cc(C(F)(F)F)ccn3)n2)C1 | 0.6869
[H][C@@]12CN(Cc3cccnc3)CCO[C@]1([H])CN(C(=O)c1ccncn1)C2 | -7.786
Cc1cnn(CCNCc2ccccc2C#N)c1 | 0.08354
Cn1nnnc1SCCC(=O)NCC1Cc2ccccc2O1 (stereo not given) | -4.45
Cc1cccnc1NC(=O)C1(n2cnnn2)CCCCC1 | 3.724
Cc1nc(C2CCN(CC(=O)NC3CC3)CC2)cc(N2CCOCC2)n1 | -9.151
COC(=O)c1ccc(CNC2CC(=O)N(Cc3cccc(F)c3)C2)cc1 (stereo not given) | -7.774
Cl.c1nc(N2CCOCC2)sc1-c1cncn1CCCN1CCCCC1 | 4.876
CC(C)N1CCC(Cc2cncc(-c3cc(F)ccc3C(=O)O)n2)CC1 | -4.131
Cc1c(C(=O)NCC(C)C)nnn1-c1cccc2c1CCN(C)C2 | -21.98
[H][C@]12CN(S(C)(=O)=O)CCN1C[C@H](c1ccccc1)[C@H]2C(=O)OCC | -23.16
CCc1nc(CC(=O)N2CCCC2c2c(C)nn(C)c2OC)cs1 (stereo not given) | 12.04
CCc1ccccc1-c1cc(C)nc(N)n1 | -11.23
CCn1ccnc1CN1CCN(Cc2ccc(C#N)cc2)CC1 | 10.72
Cc1nc(C)n(CC2CCCN2CC(=O)Nc2c(C)n[nH]c2C)n1 (stereo not given) | 0.653
CCc1noc(CN(C)Cc2ccc(N3CCCCC3)cc2)n1 | -3.708
CC1CN(CC2CCCC2)CCN1c1ccc2nncn2n1 (stereo not given) | -5.005
COCCN1C(=O)CC[C@]12CC[C@@H](NC(=O)c1cc(C)on1)CC2 | -1.711
COc1cccc(CCC2CCCCN2)c1 (stereo not given) | -9.719
Cc1cc(=O)n2nc(Oc3ccc(Cl)c(C)c3)sc2n1 | -6.804
Cc1ccc(CNC(=O)CN2CCOC(Cn3cncn3)C2)s1 (stereo not given) | 0.3943
CCN(CC)CC(=O)N1CCCCC1c1nc(C)cs1 (stereo not given) | 14.58
[H][C@@]12C[C@H](C(=O)Nc3cccnc3)CN(Cc3ccc(C)o3)[C@]1([H])CCO2 | -11.92
CC(C)c1cc(NC(=O)c2ccc([S+]([O-])C(C)C)cc2)[nH]n1 (stereo not given) | -10.98 & 36.23 & 39.23
CC(C)OCc1ccc(CNC(=O)CC(F)(F)F)cc1 | -83.86
O=C(COc1cccc2c1CCC2=O)NCc1ccccc1F | 2.368
Cc1cc(NC(=O)CN2CCCC2c2noc(C)n2)n(C)n1 (stereo not given) | 16.3
CCOC(=O)N1CCC(NC(=O)c2cccc(C3CCCNC3)c2)CC1 (stereo not given) | 7.341
Cc1nn(C)c(C)c1C(C(=O)O)N1CCc2ccccc2C1 (stereo not given) | -31.63 & -20.48 & -34.04
CCc1nnc2n1CCN(Cc1nc(-c3ccoc3)no1)C2 | 14.49
NC(=O)C1CCCN1Cc1cccc(NC(=O)c2cc(Cl)cc(Cl)c2)c1 (stereo not given) | -15.69
Cc1csc(Nc2cc(C3CN(C(C)C)C3)nc(C)n2)n1 | -3.314
Cc1cnn(CCCNC(=O)NCCC(=O)Nc2ccccc2)c1 | 0
CCc1nnc(CN2CCc3cnc(C)nc3C2)o1 | -26.01
CN1CCN(S(=O)(=O)c2cccc(S(=O)(=O)C3CCS(=O)(=O)C3)c2)CC1 (stereo not given) | -9.066
CCCn1nc2c(cc1=O)CN(Cc1nnc(C3CC3)o1)CC2 | 13.74
COc1ccc(Cl)cc1Nc1nc(N)c(C(C)=O)s1 | -1.726
CN1CCC(Oc2ccc(NC(=O)c3ccccc3Br)cc2)CC1 | 16.85 & 35.48 & -7.197
CCc1nnc(Nc2cc(C)nc(C3CN(C(C)=O)CCO3)c2)s1 (stereo not given) | 14.63
CCc1onc(C)c1C(=O)N1CCC(c2cc3ncccc3cn2)CC1 | 8.271
O=C(NCCc1csc(N2CCCC2)n1)N(C1CCCC1)C1CC1 | 0.6438
COCC1CC2(CCN(c3ccc(C)nn3)CC2)CN1C(C)C.O=C(O)C(F)(F)F (stereo not given) | 9.283
CN(Cc1ncc(C(C)(C)C)o1)CC1CCCN1c1cccnn1 (stereo not given) | 13.95
CCn1cncc1-c1nc2c([nH]1)CC(C)(C)CNC2=O | -8.772
[H][C@@]12COC[C@]1(c1nc(C)no1)CN(C(=O)COC1CCCC1)C2 | -20.15 & -8.385 & 5.429
Cc1ncc(-c2ccnc(NC3CC3)n2)c(-c2cccnc2)n1 | 5.504
CCOCCn1c(=O)[nH]c2cc(C(=O)N(C)Cc3nc(C)cs3)ccc21 | -6.706
Cc1nc(CN2CCN(C(C)c3nc(C(C)C)no3)CC2)oc1C (stereo not given) | 3.395
Cc1ccc2c(n1)N(CCn1cccn1)CCN(C(=O)CC1CC1)C2.O=C(O)C(F)(F)F | -12.92

Measurements from “University of Dundee, Small-Polar-MMV Screening Library” (2021), ChEMBL document CHEMBL3988442.